Binding data for eight molecules are collected here from publication doi:10.1101/2023.08.07.552284.

No constants are given. Whether binding was seen depends on the method and setting. For some of these results: A result given as binding can be weak or reduced; the word gives no strength. Where a sequence is shown, tags or fusion partners need not be part of it. For some of these results: In cells and extracts the contact can be indirect.

In assay [1] the target is T1, MYB3R3, yeast two-hybrid fusion (Arabidopsis thaliana) (UniProt Q8H1P9).
T1 sequence: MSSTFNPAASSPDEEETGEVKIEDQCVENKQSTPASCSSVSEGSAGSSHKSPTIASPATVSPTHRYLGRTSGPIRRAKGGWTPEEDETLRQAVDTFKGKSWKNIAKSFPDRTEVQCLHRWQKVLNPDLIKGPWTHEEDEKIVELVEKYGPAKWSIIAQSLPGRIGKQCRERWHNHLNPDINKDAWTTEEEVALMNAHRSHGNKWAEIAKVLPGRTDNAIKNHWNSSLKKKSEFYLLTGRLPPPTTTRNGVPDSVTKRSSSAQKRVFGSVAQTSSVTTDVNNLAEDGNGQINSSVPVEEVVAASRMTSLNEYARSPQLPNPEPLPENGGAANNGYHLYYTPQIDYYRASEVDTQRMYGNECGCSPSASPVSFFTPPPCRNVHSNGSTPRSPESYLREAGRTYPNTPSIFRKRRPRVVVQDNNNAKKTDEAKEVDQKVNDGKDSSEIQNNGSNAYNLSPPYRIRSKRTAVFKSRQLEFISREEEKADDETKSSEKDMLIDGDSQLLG
Description: two-hybrid.

Assay [2] concerns the target T2, DPA, yeast two-hybrid fusion (Arabidopsis thaliana) (UniProt Q9FNY3).
T2 sequence: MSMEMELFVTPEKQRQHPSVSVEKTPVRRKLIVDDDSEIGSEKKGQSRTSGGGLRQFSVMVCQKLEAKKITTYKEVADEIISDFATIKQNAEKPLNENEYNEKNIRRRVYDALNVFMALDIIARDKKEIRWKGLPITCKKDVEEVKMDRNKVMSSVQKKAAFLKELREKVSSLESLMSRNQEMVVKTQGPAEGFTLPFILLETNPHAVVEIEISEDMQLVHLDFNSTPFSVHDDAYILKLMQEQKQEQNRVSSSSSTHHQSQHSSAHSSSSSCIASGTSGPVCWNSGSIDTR
Description: two-hybrid.

Assay [3] addresses T3, MYB3R1, yeast two-hybrid fusion (Arabidopsis thaliana) (UniProt Q9S7G7).
T3 sequence: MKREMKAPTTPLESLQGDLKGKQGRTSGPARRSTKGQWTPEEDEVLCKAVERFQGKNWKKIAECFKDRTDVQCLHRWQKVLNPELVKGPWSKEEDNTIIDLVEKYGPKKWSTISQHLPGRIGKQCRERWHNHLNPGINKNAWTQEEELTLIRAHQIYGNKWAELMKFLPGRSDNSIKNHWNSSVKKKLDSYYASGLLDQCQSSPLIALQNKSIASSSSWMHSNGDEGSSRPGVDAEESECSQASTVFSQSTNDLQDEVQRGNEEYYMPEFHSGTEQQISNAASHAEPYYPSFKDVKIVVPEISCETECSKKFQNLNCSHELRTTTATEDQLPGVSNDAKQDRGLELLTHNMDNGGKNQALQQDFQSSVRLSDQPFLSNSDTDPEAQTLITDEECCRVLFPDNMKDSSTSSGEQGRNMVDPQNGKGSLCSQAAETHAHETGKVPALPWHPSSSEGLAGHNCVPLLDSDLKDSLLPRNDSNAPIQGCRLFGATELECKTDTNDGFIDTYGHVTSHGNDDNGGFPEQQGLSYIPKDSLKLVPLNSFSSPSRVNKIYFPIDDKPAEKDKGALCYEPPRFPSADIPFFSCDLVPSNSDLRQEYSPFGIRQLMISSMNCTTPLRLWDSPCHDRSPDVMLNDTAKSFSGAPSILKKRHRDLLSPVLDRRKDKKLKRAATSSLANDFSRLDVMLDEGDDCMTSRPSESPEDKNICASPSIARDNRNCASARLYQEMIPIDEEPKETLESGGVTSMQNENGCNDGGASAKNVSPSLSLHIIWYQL
Put plainly: two-hybrid.

In assay [4] the target is T4, NAC050, yeast two-hybrid fusion (Arabidopsis thaliana) (UniProt Q9SQX9).
T4 sequence: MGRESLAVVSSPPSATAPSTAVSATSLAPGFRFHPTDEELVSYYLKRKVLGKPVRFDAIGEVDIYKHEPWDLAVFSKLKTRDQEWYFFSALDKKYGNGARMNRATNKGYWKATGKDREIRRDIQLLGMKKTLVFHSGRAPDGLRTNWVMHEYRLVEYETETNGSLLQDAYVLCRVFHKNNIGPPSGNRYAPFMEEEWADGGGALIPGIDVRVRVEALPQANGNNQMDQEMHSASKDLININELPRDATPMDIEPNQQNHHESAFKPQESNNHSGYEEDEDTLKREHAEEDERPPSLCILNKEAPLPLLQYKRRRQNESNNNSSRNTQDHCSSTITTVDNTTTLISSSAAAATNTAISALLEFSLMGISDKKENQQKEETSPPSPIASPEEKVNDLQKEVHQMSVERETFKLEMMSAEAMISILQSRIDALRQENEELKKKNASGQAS
Put plainly: two-hybrid.

Assay [5] addresses T5, NAC052, yeast two-hybrid fusion (Arabidopsis thaliana) (UniProt Q9SQY0).
T5 sequence: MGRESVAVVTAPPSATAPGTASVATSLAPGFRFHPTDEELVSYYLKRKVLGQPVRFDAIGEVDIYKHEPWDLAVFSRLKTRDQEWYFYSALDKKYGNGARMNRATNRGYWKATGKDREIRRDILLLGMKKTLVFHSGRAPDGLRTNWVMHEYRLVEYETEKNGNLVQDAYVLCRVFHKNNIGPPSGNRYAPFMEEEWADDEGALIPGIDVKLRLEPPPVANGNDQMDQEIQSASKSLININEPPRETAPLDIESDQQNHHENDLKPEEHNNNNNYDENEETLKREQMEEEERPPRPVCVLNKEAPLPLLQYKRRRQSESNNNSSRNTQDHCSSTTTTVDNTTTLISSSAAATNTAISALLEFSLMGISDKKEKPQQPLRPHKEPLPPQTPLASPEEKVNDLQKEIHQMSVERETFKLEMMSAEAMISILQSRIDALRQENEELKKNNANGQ
Description: two-hybrid.

Assay [6] addresses T6, nYFP-NAC052, BiFC fusion (Arabidopsis thaliana) (UniProt Q9SQY0).
T6 sequence: T5 sequence
Description: split reporter.

Assay [7] addresses T7, nYFP-NAC050, BiFC fusion (Arabidopsis thaliana) (UniProt Q9SQX9).
T7 sequence: T4 sequence
Description: split reporter.

For assay [8], the target named is LIN37B, yeast two-hybrid fusion (Arabidopsis thaliana). Put plainly: two-hybrid.

On to “BTE1, yeast two-hybrid fusion (Arabidopsis thaliana)”, for which the binding result in assay [1] and in assay [2] was “binds” in each case.

Take “BTL1, yeast two-hybrid fusion (Arabidopsis thaliana)”: the binding entry in assay [1] and in assay [3] was “binds” in each case.

Turning to “FLAC, yeast two-hybrid fusion (Arabidopsis thaliana)”, the binding entry in assay [1] is “binds”; in assay [3] it was “no binding”; in assay [4], “no binding”; in assay [5], “no binding”.

As for “FLIC, yeast two-hybrid fusion (AD-FLIC) (from UniProt F4KFG7)”, the binding result in assay [1] is “binds”.

“LIN37B, BiFC fusion (Arabidopsis thaliana)”: the binding result in assay [6] and in assay [7] was “binds” each time.

On to “cYFP-FLAC, BiFC fusion (Arabidopsis thaliana)”, for which the binding result in assay [6] is on record as “binds”; in assay [7], “no binding”.

“cYFP-LIN37A, BiFC fusion (Arabidopsis thaliana)”: the binding entry in assay [6] is listed as “no binding”; in assay [7], “binds”.

B1: NAC050, yeast two-hybrid fusion (protein, UniProt Q9SQX9 1-447)
chain: T4 sequence
Turning to B1, the binding result in assay [8] is listed as “binds”.
